Laboratory results taken from US20240294663A1.
Results are given in words; binding and its absence hold for the method and conditions named. Some binding calls cover weakened binding; strength is not graded here.

Amino acid sequences for entries named in this document (tags omitted). A change or cut given only in a name is not applied to a line headed by its entry. Chains listed by the source or under a name are the forms on record and can include a tag or linker.
purified MSLN ectodomain (Q13421, form named): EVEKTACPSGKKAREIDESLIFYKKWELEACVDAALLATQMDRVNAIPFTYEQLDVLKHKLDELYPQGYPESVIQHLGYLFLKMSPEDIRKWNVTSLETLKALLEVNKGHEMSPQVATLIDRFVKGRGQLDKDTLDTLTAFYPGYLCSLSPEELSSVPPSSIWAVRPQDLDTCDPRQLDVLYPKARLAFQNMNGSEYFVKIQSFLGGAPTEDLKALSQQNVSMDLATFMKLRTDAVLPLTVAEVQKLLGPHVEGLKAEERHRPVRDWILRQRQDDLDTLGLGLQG

Each binder was assayed against purified MSLN ectodomain (human) (UniProt Q13421) (assay: SPR (Carterra LSA), antibody captured on anti-human IgG, MSLN ectodomain as analyte).

| binding | Binder |
| --- | --- |
| binds | anti-MSLN 1A12 antibody (Parent Clone) (antibody, human IgG1, kappa, N297A, V domains shown) VH: EVQLLESGGGLVQPGGSLRLSCAASGLTFRSYAMTWVRQAPGKGLEWVSGISVSGGITYYADSVKGRFTISRDNSKNTLYLQMNSLRAEDTAVYYCAKRGAAVGSFDYWGQGTLVTVSS VL: DIQMTQSPSSLSASVGDRVTITCRSSQGIGSWLAWYQQKPEKAPQSLIYAASSLQSGVPSRFSGSGSGTDFTLTISNLQPEDFATYYCQQYNSYPLTFGGGTKVEIKR |
| binds | 1A12 light chain variant SMT573 (N92A) (antibody, V domains shown) VH: EVQLLESGGGLVQPGGSLRLSCAASGLTFRSYAMTWVRQAPGKGLEWVSGISVSGGITYYADSVKGRFTISRDNSKNTLYLQMNSLRAEDTAVYYCAKRGAAVGSFDYWGQGTLVTVSS VL: DIQMTQSPSSLSASVGDRVTITCRSSQGIGSWLAWYQQKPEKAPQSLIYAASSLQSGVPSRFSGSGSGTDFTLTISNLQPEDFATYYCQQYASYPLTFGGGTKVEIKR |
| binds | 1A12 light chain variant SMT572 (N92S) (antibody, V domains shown) VH: EVQLLESGGGLVQPGGSLRLSCAASGLTFRSYAMTWVRQAPGKGLEWVSGISVSGGITYYADSVKGRFTISRDNSKNTLYLQMNSLRAEDTAVYYCAKRGAAVGSFDYWGQGTLVTVSS VL: DIQMTQSPSSLSASVGDRVTITCRSSQGIGSWLAWYQQKPEKAPQSLIYAASSLQSGVPSRFSGSGSGTDFTLTISNLQPEDFATYYCQQYSSYPLTFGGGTKVEIKR |

Continued, binder first:

| Binder | binding |
| --- | --- |
| 1A12 heavy chain variant SMT577 (D62E) (antibody, human IgG1, kappa, N297A, V domains shown) VH: EVQLLESGGGLVQPGGSLRLSCAASGLTFRSYAMTWVRQAPGKGLEWVSGISVSGGITYYAESVKGRFTISRDNSKNTLYLQMNSLRAEDTAVYYCAKRGAAVGSFDYWGQGTLVTVSS VL: DIQMTQSPSSLSASVGDRVTITCRSSQGIGSWLAWYQQKPEKAPQSLIYAASSLQSGVPSRFSGSGSGTDFTLTISNLQPEDFATYYCQQYNSYPLTFGGGTKVEIKR | binds |
| 1A12 heavy chain variant SMT578 (D62S) (antibody, human IgG1, kappa, N297A, V domains shown) VH: EVQLLESGGGLVQPGGSLRLSCAASGLTFRSYAMTWVRQAPGKGLEWVSGISVSGGITYYASSVKGRFTISRDNSKNTLYLQMNSLRAEDTAVYYCAKRGAAVGSFDYWGQGTLVTVSS VL: DIQMTQSPSSLSASVGDRVTITCRSSQGIGSWLAWYQQKPEKAPQSLIYAASSLQSGVPSRFSGSGSGTDFTLTISNLQPEDFATYYCQQYNSYPLTFGGGTKVEIKR | binds |
| 1A12 heavy chain variant SMT581 (S63V) (antibody, human IgG1, kappa, N297A, V domains shown) VH: EVQLLESGGGLVQPGGSLRLSCAASGLTFRSYAMTWVRQAPGKGLEWVSGISVSGGITYYADVVKGRFTISRDNSKNTLYLQMNSLRAEDTAVYYCAKRGAAVGSFDYWGQGTLVTVSS VL: DIQMTQSPSSLSASVGDRVTITCRSSQGIGSWLAWYQQKPEKAPQSLIYAASSLQSGVPSRFSGSGSGTDFTLTISNLQPEDFATYYCQQYNSYPLTFGGGTKVEIKR | binds |
| 1A12 heavy chain variant SMT579 (D62A) (antibody, human IgG1, kappa, N297A, V domains shown) VH: EVQLLESGGGLVQPGGSLRLSCAASGLTFRSYAMTWVRQAPGKGLEWVSGISVSGGITYYAASVKGRFTISRDNSKNTLYLQMNSLRAEDTAVYYCAKRGAAVGSFDYWGQGTLVTVSS VL: DIQMTQSPSSLSASVGDRVTITCRSSQGIGSWLAWYQQKPEKAPQSLIYAASSLQSGVPSRFSGSGSGTDFTLTISNLQPEDFATYYCQQYNSYPLTFGGGTKVEIKR | binds |
| 1A12 heavy chain variant SMT580 (S63T) (antibody, human IgG1, kappa, N297A, V domains shown) VH: EVQLLESGGGLVQPGGSLRLSCAASGLTFRSYAMTWVRQAPGKGLEWVSGISVSGGITYYADTVKGRFTISRDNSKNTLYLQMNSLRAEDTAVYYCAKRGAAVGSFDYWGQGTLVTVSS VL: DIQMTQSPSSLSASVGDRVTITCRSSQGIGSWLAWYQQKPEKAPQSLIYAASSLQSGVPSRFSGSGSGTDFTLTISNLQPEDFATYYCQQYNSYPLTFGGGTKVEIKR | binds |
